Source: PMC6190850, “The RNA-Recognition Motifs of TAR DNA-Binding Protein 43 May Play a Role in the Aberrant Self-Assembly of the Protein”
For at least one entry, the source does not settle the construct or the ends of the probe.

By UniProt entry, the sequences of proteins in these tests, tags left out. Residues count along the entry.
UniProt Q13148, 192-269: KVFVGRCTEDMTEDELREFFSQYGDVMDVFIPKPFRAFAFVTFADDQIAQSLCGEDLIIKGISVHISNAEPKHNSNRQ

Target: TDP-43 RRM2 (UniProt Q13148)
Assay: BLI
Details: BLI (Octet RED), 10 mM potassium phosphate pH 7.2, 150 mM KCl, 0.05% Tween, 25 C; RNA on streptavidin sensors, protein 1 nM-15 uM; recombinant protein; protein details: 6xHis-SUMO removed by TEV

Sequence GUGUGAAUGAAU [AUG12] has a Kd greater than 30 µM.
